# Measured values published in article PMC4686876.
# Amino acid sequences for entries named in this document (tags omitted). Residues count along the entry.
# UniProt P01579, 24-161: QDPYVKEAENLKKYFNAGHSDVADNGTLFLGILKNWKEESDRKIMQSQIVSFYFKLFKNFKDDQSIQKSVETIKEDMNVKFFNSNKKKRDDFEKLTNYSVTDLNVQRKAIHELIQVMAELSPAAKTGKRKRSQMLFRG
# Biological target: interferon-gamma (IFNγ) (human) (UniProt P01579)
# Test: binding assay
# Conditions: SPR (BIAcore T200, biotinylated aptamer on SA chip), 1x PBS (1 mM KH2PO4, 3 mM Na2HPO4) with 205 mM NaCl final, 0.05% NP-40, pH 7.4, 25 °C; IFNγ 1.25-50 nM; recombinant protein; single-stranded DNA
sequence,measurement,value
GGGGTTGGTTGTGTTGGGTGTTGTGT [aptamer 26],pKd,7.80

# pKd: −log10 of the molar value. Construct, isoform or probe ends are uncertain for at least one entry.
